Data source: PubChem BioAssay AID686937 (Drosophila RNAi Screening Center, 2013)
The deposit covers about 23,000 reagents; below is a random part of those that have a named target and a result. 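Reduced-secretion tags in replicate 1 do not always agree with the z-scores; no criterion for assigning the tags was given.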 A plus sign joins genes that one reagent is predicted to hit. Not stated in the record: the amount of reagent.

- Assay: 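Genes in the fly needed for secretion of protein constitutively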 (primary screen)
- Cell system: Drosophila S2 cells expressing secreted horseradish peroxidase
- Knock-down reagent: long dsRNA against Drosophila genes
- Time to read-out: about 5.5 days (5 days dsRNA, then 12 h reporter induction)
- Challenge: reporter expression induced after 5 days of dsRNA, read 12 h later; inducer not stated
- Measured: 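After 5 days of dsRNA and 12 h of reporter induction, medium peroxidase read by chemiluminescence and scored as per-plate z-score; higher values mean more reporter released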
- Reading the numbers: z-score: higher = more reporter secreted into medium

| target | PubChem SID | z-score, replicate 1 | z-score, replicate 2 | z-score, replicate 3 | z-score, replicate 4 | phenotype, replicate 1 |
| --- | --- | --- | --- | --- | --- | --- |
| CG10651 | SID104181878 | 0.19 | -0.02 | – | – | – |
| eEFSec | SID104184363 | 0.24 | 0.16 | – | – | – |
| CG13579 | SID104184007 | 0.5 | 0.47 | – | – | – |
| CG1598 | SID104186390 | 0.31 | 0.2 | – | – | – |
| Cndp2 (Cytosolic non-specific dipeptidase 2) | SID104184665 | 0.03 | 0.16 | – | – | – |
| CG3081 | SID104198363 | 0.41 | 0.44 | – | – | – |
| CG13563 | SID104201702 | -1.22 | -0.1 | – | – | reduced secretion |
| Sbat (Sabbat) | SID104179952 | 0.42 | 0.23 | – | – | – |
| CG10674 | SID104189567 | 0.33 | 0.48 | – | – | – |
| sinu (sinuous) | SID104189544 | 0.7 | 0.39 | – | – | – |
| CG13014 | SID104199325 | 0.1 | 0.1 | – | – | – |
| Nup160 + RfC38 | SID104181789 | 0.32 | 0.25 | – | – | – |
| Agpat3 (1-Acylglycerol-3-phosphate O-acyltransferase 3) | SID104190237 | 0.13 | 0.22 | – | – | – |
| CG9643 | SID104180514 | -0.22 | 0.35 | – | – | – |
| CG31460 | SID104194162 | 0.25 | 0.31 | – | – | – |
| CG42685 | SID104181763 | 0.72 | -0.02 | 0.59 | 0.08 | – |
| CG31759 | SID104181022 | 0.04 | 0.1 | – | – | – |
| Dhrs4 (Dehydrogenase/reductase 4) | SID104189565 | 0.39 | 0.43 | – | – | – |
| CG15336 | SID104197811 | 0.37 | 0.57 | – | – | – |
| Rab4 | SID104187316 | 0.6 | 0.22 | – | – | – |
| CG12963 | SID104185347 | -0.41 | -0.29 | – | – | – |
| CG12963 | SID104186057 | 0.36 | -0.02 | – | – | – |
| Grl43a (Gustatory receptor-like 43a) | SID104186175 | 0.28 | 0.2 | – | – | – |
| Ssb-c31a (Single stranded-binding protein c31A) | SID104183235 | 0.33 | 0.46 | – | – | – |
| CG10931 | SID104185807 | 0.36 | 0.17 | – | – | – |
| CG17472 | SID104182414 | 0.25 | 0.43 | – | – | – |
| hoe2 (hoepel2) | SID104180251 | 0.16 | 0.3 | – | – | – |
| CG6891 | SID104199808 | 0.26 | 0.35 | – | – | – |
| CG31195 | SID104193232 | 0.14 | 0.21 | – | – | – |
| asRNA:CR43159 + yellow-k | SID104190643 | 0.49 | 0.32 | – | – | – |
| lbl (ladybird late) | SID104196778 | 0.35 | 0.35 | – | – | – |
| fmt (fiery mountain) | SID104189509 | 0.13 | 0.19 | – | – | – |
| Spn42Da (Serpin 42Da) | SID104184817 | 0.31 | 0.16 | – | – | – |
